Hit rate of the full screen: of about 300,000 compounds, about 4,000 (1.3%) were called active. Inconclusive results, whose numbers are uncertain, are shown with a selection of clear calls.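 Rule for the calls: active = mean replicate score, as percent of positive control median, at least 50; inconclusive = mean below 50 but one replicate at or above 50; inactive = mean and every replicate below 50.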
Experiment: kanamycin survival loss of SKKanGAS strain – BacTiter-Glo luminescence, streptokinase expression inhibitor project, primary screen (AID 1662);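 note: strain carries kanamycin resistance gene driven by streptokinase promoter and grows in 40 µg/ml kanamycin; loss of luminescence reflects streptokinase promoter inhibition or plain growth inhibition; 0% = median of DMSO wells and 100% = positive control at its reference dose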
Settings: S. pyogenes SKKanGAS, kanamycin growth, 6 h, at 7.5 µM, stronger effect = higher value

| Compound | inhibition |
| --- | --- |
| CCOc1ccccc1NC(=O)c1oc2ccccc2c1NC(=O)C1CC1 | inconclusive: 37.1% |
| CCOC(=O)c1sc(NC(=O)c2cc(-c3ccc(C)cc3)nc3ccccc23)c(C#N)c1C | inconclusive: 48.9% |
| CC(C)[C@@H](C(=O)NC1CCCC1)N1C(=O)N2CCc3c([nH]c4ccccc34)[C@@]2(C)C1=O | active: 67.9% |
| CC(C)C(=O)N1CCN(c2ccccc2NC(=O)COc2ccc(C3CCCCC3)cc2)CC1 | inconclusive: 48.1% |
| O=C(c1ccccc1)c1cc2ccc(O)cc2oc1=O | active: 62.1% |
| C[C@H]1c2cccc(O)c2C(O)=C2C(=O)[C@]3(O)C(O)=C(C(N)=O)C(=O)[C@@H](N(C)C)C3[C@@H](O)C21 (stereo partly specified) | active: 105% |
| Cc1ccc(/C(O)=C/C(=O)C(=O)NC23CC4CC(CC(C4)C2)C3)cc1 | active: 53.6% |
| COc1cc(NC(=O)C(C)Oc2ccccc2)ccc1NC(=O)COc1ccccc1 (stereo unspecified) | inconclusive: 46.1% |
| COc1ccc2c(c1)C(=NO)c1cc(OC)ccc1-2 | inactive: -17.2% |
| Cc1cccc(CC(=O)NCCS(=O)(=O)N2CCN(c3cccc(Cl)c3)CC2)c1 | inactive: -5.76% |
| O=C(CN1CCCC1)Nc1ccc(F)c(Cl)c1 | inactive: 2.42% |
| CCOC(=O)C1=C(C)n2c(s/c(=C/c3cccc([N+](=O)[O-])c3)c2=O)=NC1c1ccc(O)c(OC)c1 (stereo unspecified) | active: 67.4% |
| COc1ccc(C2CC(=O)C3=C(C2)Nc2ncnn2C3c2ccccc2C)c(OC)c1 (stereo unspecified) | inactive: 21.2% |
| Cc1ccc([N+](=O)[O-])cc1N(CC(=O)Nc1ccc(S(=O)(=O)Nc2cccc(C(F)(F)F)c2)cc1)S(C)(=O)=O | inconclusive: 48.2% |
| COc1ccc(-c2cc(-c3ccc(Cl)cc3)n[nH]2)c(O)c1 | inconclusive: 44.2% |
| Cc1cc(C)c(OCC(=O)N2CCN(c3ncc(C(F)(F)F)cc3Cl)CC2)c(C)c1 | inconclusive: 43.7% |
| Clc1ccc(/C=C/c2nc(Cl)c(-c3ccc(Cl)cc3)c(Cl)n2)cc1 | inconclusive: 45.9% |
| COc1ccccc1C(=O)Nc1nnc(SCC(=O)NCC2CCCO2)s1 (stereo unspecified) | inconclusive: 42.5% |
| COc1ccccc1NC(=O)CCN1C(=O)c2ccccc2C1=O | inactive: -3.43% |
| COc1ccc(NC(=O)/C(C#N)=C/c2c(C)nn(-c3ccc(F)cc3)c2Cl)cc1Cl | inactive: 4.15% |
| COC(=O)c1ccc(N2CCN(C)CC2)c(NC(=O)COc2ccc(C)cc2)c1 | inconclusive: 39.1% |
| COc1ccc(Cc2n[nH]c(=S)n2NC(=O)Nc2ccc(Cl)c(Cl)c2)cc1 | active: 65.5% |

An excerpt from above in order of heavy-atom count, high to low.

| Compound | inhibition |
| --- | --- |
| Cc1cccc(CC(=O)NCCS(=O)(=O)N2CCN(c3cccc(Cl)c3)CC2)c1 | inactive: -5.76% |
| CCOc1ccccc1NC(=O)c1oc2ccccc2c1NC(=O)C1CC1 | inconclusive: 37.1% |
| Cc1ccc(/C(O)=C/C(=O)C(=O)NC23CC4CC(CC(C4)C2)C3)cc1 | active: 53.6% |
| O=C(c1ccccc1)c1cc2ccc(O)cc2oc1=O | active: 62.1% |
| COc1ccc2c(c1)C(=NO)c1cc(OC)ccc1-2 | inactive: -17.2% |
| O=C(CN1CCCC1)Nc1ccc(F)c(Cl)c1 | inactive: 2.42% |

(more compounds)

| Compound | inhibition |
| --- | --- |
| O=C(CSc1nccc(-c2cccs2)n1)Nc1cccc(Cl)c1Cl | inconclusive: 22.4% |
| O=C(NCCc1ccccc1)C1CC(=O)N(C2CCCC2)C1 (stereo unspecified) | inactive: -1.02% |
| Cc1ccc(-n2nc(C(=O)c3ccccc3)n3c(=O)c(Cc4ccccc4)nnc23)cc1 | inconclusive: 38.1% |
| O=C(Nc1cccc(C(F)(F)F)c1)c1cccnc1N1CCN(c2ccccc2)CC1 | active: 51.2% |
| CC(=O)N1CCN(c2cc3c(cc2F)c(=O)c(C(=O)O)cn3C2CC2)CC1 | inconclusive: 42.7% |
| Cc1ccc(-n2c(O)c(C=Nc3ccc(S(=O)(=O)Nc4ncccn4)cc3)c3ccccc3c2=O)cc1C | inconclusive: 46.2% |
| Cc1cc(C)c(C2C3=C(Nc4c2c(C)nn4-c2ccccn2)c2ccccc2C3=O)c(C)c1 (stereo unspecified) | active: 57.1% |
| Oc1c(N=Nc2ccccc2)sc2ccccc12 | inactive: 8.46% |
| CCOC(=O)c1cccnc1SCC(=O)NC(C)CC (stereo unspecified) | inconclusive: 39.2% |
| O=C(c1ccccc1Cl)N1CCN(S(=O)(=O)c2cccs2)CC1 | inconclusive: 38% |
| CC(C)N1CCc2c(sc(NC(=O)c3ccc(S(=O)(=O)N(C)CC4CCCO4)cc3)c2C(N)=O)C1 (stereo unspecified) | inconclusive: 34.7% |
| Cc1cc(NS(=O)(=O)c2ccc(NC(=O)CSc3nc4sc(C)c(C)c4c(=O)[nH]3)cc2)no1 | active: 54.4% |
| CCc1ccc(/C=N/n2c(C3CCCCC3)n[nH]c2=S)cc1 | inconclusive: 48.8% |
| Cc1c(Cl)c([N+](=O)[O-])nn1Cc1ccc(C(=O)N/N=C\c2cc(Cl)ccc2O)o1 | active: 96.5% |
| C=CCN(CC=C)S(=O)(=O)c1ccc(NC(=S)NC(=O)C2CC2)cc1 | inconclusive: 44.5% |
| COc1ccc(N2CC(C(=O)Nc3nnc(SCc4cccnc4)s3)CC2=O)cc1 (stereo unspecified) | inconclusive: 38.6% |
| CCSc1nnc(NC(=O)c2nc(-c3ccccc3)n(-c3ccccc3)n2)s1 | active: 62.5% |
| O=C(c1cc(-c2ccccc2)nc2ccccc12)N1CCN(c2ccccc2O)CC1 | active: 66.8% |
| COc1ccc(C(=O)/C=C/c2ccc(O)cc2)c(O)c1CC=C(C)C | active: 88.6% |
| Cc1ccc(/C=c2/sc3nnc(-c4ccccc4Cl)n3c2=O)o1 | inactive: -2.04% |
| O=c1c(Cl)c2oc3ccccc3nc-2c2ccccc12 | inconclusive: 40.7% |
| CCN1CCN(C(CNS(=O)(=O)c2ccc(C)cc2)c2cccnc2)CC1 (stereo unspecified) | inconclusive: 39.1% |

| Compound | inhibition |
| --- | --- |
| O=[N+]([O-])c1ccc(S(=O)(=O)Nc2ccc(-c3csc(-c4ccccc4)n3)cc2)cc1 | active: 66.5% |
| CCOc1cc(C=C(C#N)C#N)ccc1Oc1ccc([N+](=O)[O-])cn1 | inconclusive: 36.8% |
| O=C(OCc1ccc(-c2ccccc2)cc1)c1cccc(O)c1 | active: 54.9% |
| CC(=O)NC(c1ccc(Cl)cc1Cl)c1ccc2cccnc2c1O (stereo unspecified) | active: 73.2% |
| O=C(Cc1cccs1)Nc1cccc(-c2nc3cc4ccccc4cc3[nH]2)c1 | active: 71.9% |
| COC(=O)c1c(NC(=O)COc2ccc(Cl)cc2Cl)sc2c1CC(C)(C)NC2(C)C | inconclusive: 39.8% |
| COc1cccc(/C=C/C(=C2/C(=O)N(c3ccccc3)N=C2C)c2ccc(Br)cc2)c1OC | inconclusive: 22.7% |
| CN(C(=O)CSc1nc(-c2ccc(C(C)(C)C)cc2)c(C#N)c(=O)[nH]1)C1CCCCC1 | inconclusive: 40.9% |
| CCCCNC(=O)c1sc(=S)n2c1[nH]c(=O)c1ccccc12 | active: 53.8% |
| COc1ccc(C(=O)NC(C)CCc2ccccc2)c(O)c1 (stereo unspecified) | inactive: -3.9% |
| O=C(CSc1ccc(-c2ccc(Cl)cc2)nn1)NC1CCCC1 | inconclusive: 44.8% |
| O=C(CSc1ccc(Cl)cc1)N/N=C/c1ccc([N+](=O)[O-])o1 | inconclusive: 49.3% |
| S=C(N/N=C1\CCc2ccccc21)NC1CCCCC1 | inconclusive: 7.08% |
| CCn1c(COc2ccc(C)cc2)nnc1SCc1ccc(C#N)cc1 | inconclusive: 38.1% |
| O=C(Oc1cccc2c(O)cccc12)c1ccccc1 | inconclusive: 37% |
| Oc1cc2ccccc2cc1-c1n[nH]c(=S)o1 | inconclusive: 44.3% |
| CC(C(=O)N1CCCc2c1c(=O)oc1ccc(O)cc21)N1CCc2ccccc2C1 (stereo unspecified) | inactive: 7.46% |
| CCOC(=O)CSc1nnc(Cn2nnc3ccccc32)n1-c1ccc(F)cc1 | inactive: 1.45% |
| O=C(Nc1ccc(C(=O)N2CCN(c3ccccn3)CC2)cc1)c1ccc(Br)o1 | inactive: 9.84% |
| Cc1ccccc1S(=O)(=O)Oc1cccc2c(O)cccc12 | inactive: 7.31% |
| CC(NC(=S)NC1CCC(C(C)(C)C)CC1)c1ccccc1 (stereo unspecified) | active: 81.4% |
| C=C1SC(=Nc2ccccc2Cl)N(C(=O)c2sc3ccccc3c2Cl)C12CCCCC2 | inconclusive: 48.4% |

| Compound | inhibition |
| --- | --- |
| COc1cc(/C=N\NC(=O)c2ccc(Cn3cc(Br)c([N+](=O)[O-])n3)o2)cc(OC)c1O | inconclusive: 42% |
| Cc1ccc(-c2noc(CSc3nnc(Cc4ccccc4)n3-c3ccc(Cl)cc3)n2)cc1 | inconclusive: 43% |
| COc1ccc(/C=C2\SC(=N)N(c3nccs3)C2=O)cc1OC | active: 89% |
| c1ccc2c(-c3c[nH]c4ccccc34)c3ccccc3nc2c1 | inconclusive: 46.8% |
| COc1ccc(Cl)cc1NC(=O)CN1CCC(n2nnc3cc(C)ccc32)CC1 | inconclusive: 45.1% |
| COc1ccc(NC(=O)c2cccc(OC(F)F)c2)cc1Cl | inactive: -8.18% |
| N#C/C(=N\Nc1ccc(S(=O)(=O)N2CCc3ccccc32)cc1)C(N)=S | inconclusive: 43.4% |
| CCN(CC)C(=N)/C(C#N)=N/Nc1ccc(C)cc1 | inactive: 2.61% |
| CN(CC1CCCO1)S(=O)(=O)c1ccc(C(=O)Nc2ccc(F)cc2)cc1 (stereo unspecified) | inconclusive: 44.7% |
| Cc1nn(-c2ccccc2)c(Cl)c1/C=N/Nc1ccc(S(=O)(=O)Nc2ccccc2C(=O)O)cc1[N+](=O)[O-] | active: 119% |
| O=C(Oc1ccc(-c2nc(-c3ccccn3)no2)cc1)c1ccccc1 | inconclusive: 48.5% |
| C[N+](C)(C)c1ccc(/C=N/Nc2nc(Cl)c(C#N)c(Cl)c2Cl)cc1 | inconclusive: 47.6% |
| Cc1ccccc1C(=O)Nc1nc(=S)ss1 | inconclusive: 46% |
| CCOc1ccc2oc(C(=O)OCC(=O)NC(=O)NC3CCCC3)c(C)c2c1 | inconclusive: 33.5% |
| COc1ccc2c(c1)CCC/C2=N\NC(=O)c1ccoc1C | inactive: 3.56% |
| Cc1cc(OCC(=O)N2CCN(c3ccc(F)cc3)CC2)c2c(C)cc(=O)oc2c1 | inactive: -1.91% |
| O=C(Nc1nc2ccccc2s1)c1ccc([N+](=O)[O-])o1 | inactive: 5.73% |
| COc1cccc(N2CCN(c3ncnc4c3[nH]c3ccc(F)cc34)CC2C)c1 (stereo unspecified) | inconclusive: 48.5% |
| Cc1ccnc(NC(c2cccnc2)c2ccc3cccnc3c2O)c1 (stereo unspecified) | inconclusive: 16.8% |
| CCOc1ccc(N2C(=O)CC(C(C)c3ccccc3)C2=O)cc1 (stereo unspecified) | inactive: -2.29% |

Reference: PubChem BioAssay AID1662 (Broad Institute, 2009)
